Experimental data reported in article PMC7862700.
The other results are listed elsewhere or left out. Construct or isoform of the protein are uncertain.

The sequences below were run against T1, ELF2 (UniProt Q15723) (assay: DAPPL (digital affinity profiling via proximity ligation, sequencing)). Conditions: 10 mM Tris-HCl pH 7.5, 50 mM NaCl, 1 mM DTT, 4% glycerol, room temperature, 30 min; GST-TFs on glutathione beads, 16-mer random dsDNA library, 0.1% …; high values mean tight binding; double strand, one strand shown; scale: fold enrichment (6-mer frequency, TF over GST control).
T1 sequence: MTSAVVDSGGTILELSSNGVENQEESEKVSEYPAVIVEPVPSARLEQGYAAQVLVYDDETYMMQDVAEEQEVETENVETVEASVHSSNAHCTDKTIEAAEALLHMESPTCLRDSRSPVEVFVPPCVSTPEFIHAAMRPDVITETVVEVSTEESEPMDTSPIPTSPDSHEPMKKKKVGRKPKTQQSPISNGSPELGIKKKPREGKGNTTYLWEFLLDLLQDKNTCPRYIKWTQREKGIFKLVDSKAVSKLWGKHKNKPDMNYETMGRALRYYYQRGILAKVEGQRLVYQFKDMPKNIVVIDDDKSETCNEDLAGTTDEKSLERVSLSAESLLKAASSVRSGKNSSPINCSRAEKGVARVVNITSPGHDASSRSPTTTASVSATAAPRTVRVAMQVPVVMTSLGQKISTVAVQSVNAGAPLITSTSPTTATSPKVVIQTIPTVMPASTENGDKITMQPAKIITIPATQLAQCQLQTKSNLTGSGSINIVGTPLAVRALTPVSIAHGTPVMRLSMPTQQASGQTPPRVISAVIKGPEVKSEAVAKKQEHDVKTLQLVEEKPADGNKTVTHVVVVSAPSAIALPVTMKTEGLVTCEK

| Sequence | binding signal |
| --- | --- |
| CGTTCA | 1.09 |
| GATCTC | 1.16 |
| TAATCT | 1.35 |
| CCTCAT | 1.3 |
| GATGAT | 1.3 |
| CCATTG | 1.12 |
| CCTACT | 1.69 |
| CTGATA | 1.12 |
| TTTACA | 1.2 |
| GAAGCT | 1.79 |
| CTTCTG | 1.32 |
| CATGAA | 1.02 |
| TACATG | 1.14 |
| AAATTT | 1.34 |
| TCTTCA | 1.14 |
| GCTTCG | 1.28 |
| CTAGGT | 1.03 |
| TAACCT | 1.22 |
| CTGCGA | 1.2 |
| AACGTA | 0.969 |

| Sequence | binding signal |
| --- | --- |
| CGTTAA | 1.1 |
| TCCGAC | 1.45 |
| CATCTG | 1.19 |
| TTCCCC | 1.71 |
| TATTAT | 1.29 |
| ACTTCC | 13.3 |
| ATGACA | 1.23 |
| ATTTCT | 1.46 |
| TAACAC | 1.23 |
| TTCTCG | 1.32 |
| TCTTGT | 1.45 |
| TTCCAG | 1.07 |
| AGCCTC | 1.2 |
| CTATAA | 1.19 |
| GTACTT | 2.21 |
| AAATTG | 1.26 |
| ATTAGC | 1.07 |
| TGGCTT | 1.22 |
| ATTCAG | 1.12 |
| ATTGAC | 1.19 |

Already shown: an excerpt of the list.

| Sequence | binding signal |
| --- | --- |
| ACTTCC | 13.3 |
| ATGACA | 1.23 |
| ATTTCT | 1.46 |
